In patent US20090042993A1, “IDENTIFICATION OF NOVEL POST-TRANSLATIONAL PROTEIN MODIFICATIONS” (priority 2007, published 2009):
No constants are given. Whether binding was seen depends on the method and setting. Some entries that bind do so weakly or less than the wild type.

Target: BACE1 (β-site APP cleaving enzyme 1), native form BACE1WT (human), P56817
Experiment: BACE1 immunopurified from total cell lysates, Western blot under reducing and non-reducing conditions
Conditions: remark: other sources report otherwise

B1: BACE1 (β-site APP cleaving enzyme 1), native form BACE1WT, P56817 46-501 (enzyme, human, UniProt P56817 46-501, looked up)
chain: ETDEEPEEPGRRGSFVEMVDNLRGKSGQGYYVEMTVGSPPQTLNILVDTGSSNFAVGAAPHPFLHRYYQRQLSSTYRDLRKGVYVPYTQGKWEGELGTDLVSIPHGPNVTVRANIAAITESDKFFINGSNWEGILGLAYAEIARPDDSLEPFFDSLVKQTHVPNLFSLQLCGAGFPLNQSEVLASVGGSMIIGGIDHSLYTGSLWYTPIRREWYYEVIIVRVEINGQDLKMDCKEYNYDKSIVDSGTTNLRLPKKVFEAAVKSIKAASSTEKFPDGFWLGEQLVCWQAGTTPWNIFPVISLYLMGEVTNQSFRITILPQQYLRPVEDVATSQDDCYKFAISQSSTGTVMGAVIMEGFYVVFDRARKRIGFAVSACHVHDEFRTAAVEGPFVTLDMEDCGYNIPQTDESTLMTIAYVMAAICALFMLPLCLMVCQWRCLRCLRQQHDDFADDISLLK
Q: How did the binding turn out when B1 was run?
A: The binding was “binds”.
